Laboratory results from the supplement of paper PMC5662767.
Structures can show the parent of a compound that is named as a salt. This is one part of the list. Plates or batches differ in their baseline, so values are only roughly comparable.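 A clonal Drosophila S2 line expresses Smoothened bearing circularly permuted GFP in its cytoplasmic tail; Hh-driven phosphorylation opens an inhibitory loop, making it fluoresce. Flow cytometry measured per-cell fluorescence, normalized to Hh-stimulated untreated cells. Hits were inhibitor groups with shared pathway targets that consistently shifted fluorescence, not individual compounds.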

Test system: Drosophila S2 cl14 SmoIP sensor cells
Test: normalized SmoIP GFP fluorescence (untreated unstimulated = 0%, untreated Hh-stimulated = 100%); higher = more Smo activation sensor fluorescence
Settings: compound concentration: 15 uM, 24 h
[1] = stimulation: Hh conditioned medium (+Hh)
[2] = stimulation: mock conditioned medium (-Hh)

## COc1cc(Nc2ncc(F)c(Nc3ccc4c(n3)NC(=O)C(C)(C)O4)n2)cc(OC)c1OC [R406(free-base)]
[1]
  normalized SmoIP GFP fluorescence: 124%
[2]
  normalized SmoIP GFP fluorescence: 14.5%

## CC(C)(C)c1cc(NC(=O)Nc2ccc(-c3cn4c(n3)sc3cc(OCCN5CCOCC5)ccc34)cc2)no1
[1]
  normalized SmoIP GFP fluorescence: 182%
[2]
  normalized SmoIP GFP fluorescence: 87.7%

## CNCC[C@@H](Oc1ccccc1C)c1ccccc1 [atomoxetine-hydrochloride]
[1]
  normalized SmoIP GFP fluorescence: 139%
[2]
  normalized SmoIP GFP fluorescence: 15.9%

## CCc1c(C(=O)NCCc2ccc(N3CCCCC3)cc2)[nH]c2ccc(Cl)cc12
[1]
  normalized SmoIP GFP fluorescence: 152%
[2]
  normalized SmoIP GFP fluorescence: 27.1%

## Cc1cc(Cl)ccc1OCCCC(=O)NO [Droxinostat]
[1]
  normalized SmoIP GFP fluorescence: 113%
[2]
  normalized SmoIP GFP fluorescence: 6.2%

## CC(=O)Nc1ccc(C(=O)Nc2ccccc2N)cc1 [ci994-tacedinaline]
[1]
  normalized SmoIP GFP fluorescence: 237%
[2]
  normalized SmoIP GFP fluorescence: 9.39%

## CN(C)C(=O)C(CCN1CCC(O)(c2ccc(Cl)cc2)CC1)(c1ccccc1)c1ccccc1 [Loperamide-hydrochloride]
[1]
  normalized SmoIP GFP fluorescence: 177%
[2]
  normalized SmoIP GFP fluorescence: 63.1%

## OCCn1cc(-c2ccc3c(c2)CC/C3=N\O)c(-c2ccncc2)n1
[1]
  normalized SmoIP GFP fluorescence: 137%
[2]
  normalized SmoIP GFP fluorescence: 9.32%

## Cc1ccc(F)c(NC(=O)Nc2ccc(-c3cccc4[nH]nc(N)c34)cc2)c1
[1]
  normalized SmoIP GFP fluorescence: 137%
[2]
  normalized SmoIP GFP fluorescence: 54.6%

## CCOC(=O)[C@H](CCc1ccccc1)N[C@H]1CCc2ccccc2N(CC(=O)O)C1=O [Benazepril-hydrochloride]
[1]
  normalized SmoIP GFP fluorescence: 110%
[2]
  normalized SmoIP GFP fluorescence: -1.56%

## COc1ccccc1Oc1c(NS(=O)(=O)c2ccc(C(C)(C)C)cc2)nc(-c2ncccn2)nc1OCCO [bosentan-hydrate]
[1]
  normalized SmoIP GFP fluorescence: 119%
[2]
  normalized SmoIP GFP fluorescence: 6.27%

## Cn1cc(-c2ccc3nnc(Sc4ccc5ncccc5c4)n3n2)cn1
[1]
  normalized SmoIP GFP fluorescence: 124%
[2]
  normalized SmoIP GFP fluorescence: -1.13%
